# In PMC3022811:
# Chains of the proteins cited; added tags and fusions are not shown.
# UniProt O60583: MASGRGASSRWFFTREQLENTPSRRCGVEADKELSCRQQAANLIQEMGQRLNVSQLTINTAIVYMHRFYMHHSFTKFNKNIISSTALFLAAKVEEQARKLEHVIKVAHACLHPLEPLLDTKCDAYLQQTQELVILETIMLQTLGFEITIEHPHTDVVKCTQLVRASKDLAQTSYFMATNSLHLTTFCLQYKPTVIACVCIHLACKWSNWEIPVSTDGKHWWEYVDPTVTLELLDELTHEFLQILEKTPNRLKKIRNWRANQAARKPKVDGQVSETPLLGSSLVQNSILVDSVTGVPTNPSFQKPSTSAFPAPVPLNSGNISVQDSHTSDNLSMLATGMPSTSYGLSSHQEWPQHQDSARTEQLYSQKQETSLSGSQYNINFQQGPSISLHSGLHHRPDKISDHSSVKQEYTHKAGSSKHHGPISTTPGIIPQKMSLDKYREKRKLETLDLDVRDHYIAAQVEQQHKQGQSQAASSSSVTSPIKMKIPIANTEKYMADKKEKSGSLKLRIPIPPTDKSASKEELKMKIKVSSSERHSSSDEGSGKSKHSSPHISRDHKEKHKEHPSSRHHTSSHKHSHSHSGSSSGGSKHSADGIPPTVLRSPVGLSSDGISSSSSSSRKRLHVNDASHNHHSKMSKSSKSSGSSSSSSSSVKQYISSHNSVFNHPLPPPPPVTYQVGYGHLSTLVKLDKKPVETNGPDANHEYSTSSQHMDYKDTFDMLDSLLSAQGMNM
# UniProt P78527: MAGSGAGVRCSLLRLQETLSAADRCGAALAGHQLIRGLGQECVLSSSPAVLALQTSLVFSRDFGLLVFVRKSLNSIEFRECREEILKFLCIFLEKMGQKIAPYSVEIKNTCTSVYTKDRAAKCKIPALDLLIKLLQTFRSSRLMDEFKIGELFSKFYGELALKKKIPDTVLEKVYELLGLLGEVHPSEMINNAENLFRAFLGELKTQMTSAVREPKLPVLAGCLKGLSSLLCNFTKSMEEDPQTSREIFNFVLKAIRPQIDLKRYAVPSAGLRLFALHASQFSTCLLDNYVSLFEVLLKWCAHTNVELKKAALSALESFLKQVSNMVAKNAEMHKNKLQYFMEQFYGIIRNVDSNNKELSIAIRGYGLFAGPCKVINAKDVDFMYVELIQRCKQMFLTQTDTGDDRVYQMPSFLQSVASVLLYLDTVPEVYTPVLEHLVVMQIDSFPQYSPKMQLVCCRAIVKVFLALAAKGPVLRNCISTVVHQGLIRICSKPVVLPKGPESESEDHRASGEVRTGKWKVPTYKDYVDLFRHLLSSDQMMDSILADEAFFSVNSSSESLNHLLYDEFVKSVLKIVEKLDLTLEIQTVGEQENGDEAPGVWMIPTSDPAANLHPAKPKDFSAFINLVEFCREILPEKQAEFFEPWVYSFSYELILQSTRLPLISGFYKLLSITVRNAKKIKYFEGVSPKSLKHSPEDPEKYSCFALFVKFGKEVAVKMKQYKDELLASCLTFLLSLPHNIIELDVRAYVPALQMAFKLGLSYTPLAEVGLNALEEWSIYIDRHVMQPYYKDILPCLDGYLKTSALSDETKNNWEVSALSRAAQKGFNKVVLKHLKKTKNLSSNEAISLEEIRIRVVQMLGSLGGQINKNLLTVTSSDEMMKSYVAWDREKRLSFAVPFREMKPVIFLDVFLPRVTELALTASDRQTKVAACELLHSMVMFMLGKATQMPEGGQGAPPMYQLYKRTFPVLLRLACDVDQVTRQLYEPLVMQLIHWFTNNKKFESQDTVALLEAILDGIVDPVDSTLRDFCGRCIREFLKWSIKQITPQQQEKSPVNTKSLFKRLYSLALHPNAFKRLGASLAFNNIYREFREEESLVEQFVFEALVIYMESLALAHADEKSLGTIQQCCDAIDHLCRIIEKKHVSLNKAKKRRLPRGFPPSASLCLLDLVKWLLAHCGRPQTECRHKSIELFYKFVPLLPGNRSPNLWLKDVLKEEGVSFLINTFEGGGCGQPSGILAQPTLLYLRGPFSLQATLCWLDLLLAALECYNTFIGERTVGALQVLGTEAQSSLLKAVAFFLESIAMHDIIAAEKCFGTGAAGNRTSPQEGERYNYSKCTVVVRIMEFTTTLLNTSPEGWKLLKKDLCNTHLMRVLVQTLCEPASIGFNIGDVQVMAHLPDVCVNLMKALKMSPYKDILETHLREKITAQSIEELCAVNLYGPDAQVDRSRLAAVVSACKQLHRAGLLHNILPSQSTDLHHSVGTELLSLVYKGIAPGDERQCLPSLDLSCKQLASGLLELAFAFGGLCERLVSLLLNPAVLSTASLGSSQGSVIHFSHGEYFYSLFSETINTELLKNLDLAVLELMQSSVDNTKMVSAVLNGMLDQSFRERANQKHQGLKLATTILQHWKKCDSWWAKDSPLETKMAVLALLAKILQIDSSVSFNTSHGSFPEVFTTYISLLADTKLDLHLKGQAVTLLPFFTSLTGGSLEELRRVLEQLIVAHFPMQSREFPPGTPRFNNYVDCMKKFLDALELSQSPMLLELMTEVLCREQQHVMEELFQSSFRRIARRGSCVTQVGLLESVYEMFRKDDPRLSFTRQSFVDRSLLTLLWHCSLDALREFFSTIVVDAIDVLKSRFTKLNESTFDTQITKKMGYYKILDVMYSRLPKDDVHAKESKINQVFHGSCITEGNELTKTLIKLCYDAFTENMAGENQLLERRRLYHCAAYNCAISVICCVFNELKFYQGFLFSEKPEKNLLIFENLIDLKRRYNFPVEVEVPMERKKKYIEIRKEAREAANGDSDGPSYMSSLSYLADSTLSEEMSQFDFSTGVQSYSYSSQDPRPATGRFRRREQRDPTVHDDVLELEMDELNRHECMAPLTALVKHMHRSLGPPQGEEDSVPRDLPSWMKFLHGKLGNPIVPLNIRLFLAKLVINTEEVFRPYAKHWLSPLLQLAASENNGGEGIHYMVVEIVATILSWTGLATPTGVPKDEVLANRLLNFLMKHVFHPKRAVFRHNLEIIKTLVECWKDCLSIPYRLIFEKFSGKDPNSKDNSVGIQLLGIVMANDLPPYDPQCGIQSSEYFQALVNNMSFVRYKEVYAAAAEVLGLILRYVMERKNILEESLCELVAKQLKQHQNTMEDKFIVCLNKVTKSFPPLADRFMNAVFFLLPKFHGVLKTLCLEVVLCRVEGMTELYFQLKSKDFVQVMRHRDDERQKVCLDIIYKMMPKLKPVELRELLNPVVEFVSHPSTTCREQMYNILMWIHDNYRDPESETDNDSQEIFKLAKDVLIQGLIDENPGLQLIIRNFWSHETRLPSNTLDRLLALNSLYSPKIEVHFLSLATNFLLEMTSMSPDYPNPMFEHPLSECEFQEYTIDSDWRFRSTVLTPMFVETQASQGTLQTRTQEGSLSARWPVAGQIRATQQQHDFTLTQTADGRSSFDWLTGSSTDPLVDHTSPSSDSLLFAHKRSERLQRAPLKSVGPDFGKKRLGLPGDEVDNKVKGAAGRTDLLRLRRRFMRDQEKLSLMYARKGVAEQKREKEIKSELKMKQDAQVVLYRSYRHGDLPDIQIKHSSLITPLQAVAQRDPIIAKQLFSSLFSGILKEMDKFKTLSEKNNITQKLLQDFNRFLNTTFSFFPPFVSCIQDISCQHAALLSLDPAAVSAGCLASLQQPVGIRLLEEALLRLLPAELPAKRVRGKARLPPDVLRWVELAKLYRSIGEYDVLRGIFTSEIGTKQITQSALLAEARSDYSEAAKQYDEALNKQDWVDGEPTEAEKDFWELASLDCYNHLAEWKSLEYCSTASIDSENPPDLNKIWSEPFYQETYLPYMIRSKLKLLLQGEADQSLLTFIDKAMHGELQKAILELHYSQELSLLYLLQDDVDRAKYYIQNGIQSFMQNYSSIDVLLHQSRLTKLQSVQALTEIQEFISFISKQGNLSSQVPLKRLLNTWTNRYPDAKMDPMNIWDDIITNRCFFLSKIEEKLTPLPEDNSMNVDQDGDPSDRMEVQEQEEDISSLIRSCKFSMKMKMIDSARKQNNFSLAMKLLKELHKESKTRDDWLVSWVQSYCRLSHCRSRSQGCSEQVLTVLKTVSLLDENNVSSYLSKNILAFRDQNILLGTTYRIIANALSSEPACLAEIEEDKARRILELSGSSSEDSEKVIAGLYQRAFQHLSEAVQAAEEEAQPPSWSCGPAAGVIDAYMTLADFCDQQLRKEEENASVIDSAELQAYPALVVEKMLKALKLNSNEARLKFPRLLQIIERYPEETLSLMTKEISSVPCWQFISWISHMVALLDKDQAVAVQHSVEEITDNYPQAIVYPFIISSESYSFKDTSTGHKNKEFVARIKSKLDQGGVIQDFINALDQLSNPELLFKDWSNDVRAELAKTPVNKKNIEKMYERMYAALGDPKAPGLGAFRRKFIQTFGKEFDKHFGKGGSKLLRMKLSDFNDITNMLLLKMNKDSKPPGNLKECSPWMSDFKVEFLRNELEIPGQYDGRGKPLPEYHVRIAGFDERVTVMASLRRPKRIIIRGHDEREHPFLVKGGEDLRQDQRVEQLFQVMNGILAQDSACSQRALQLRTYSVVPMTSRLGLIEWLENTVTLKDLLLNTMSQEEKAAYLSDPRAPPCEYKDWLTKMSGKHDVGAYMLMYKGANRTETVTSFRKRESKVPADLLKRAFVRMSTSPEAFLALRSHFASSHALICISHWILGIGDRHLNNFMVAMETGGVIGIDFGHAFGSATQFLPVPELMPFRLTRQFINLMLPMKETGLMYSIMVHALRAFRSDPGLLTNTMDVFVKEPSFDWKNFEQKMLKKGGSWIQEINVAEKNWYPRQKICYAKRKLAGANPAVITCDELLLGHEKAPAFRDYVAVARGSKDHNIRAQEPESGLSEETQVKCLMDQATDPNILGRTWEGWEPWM
# Results are given in words; binding and its absence hold for the method and conditions named. Binding seen in cells or lysates may run through a third protein. Some results given as binding are weak or reduced against the parent protein; the word gives no strength.
# Columns and labels:
# [1] = biological target: cyclin T2 (human (endogenous in HeLa)) (UniProt O60583); experiment: co-IP; HeLa cell extracts (50 mM Tris-HCl pH 7.5, 150 mM NaCl, 1% Nonidet P40, 0.5% sodium deoxycholate); 2 ug anti-DNA-PKcs or anti-cyclin T antibody, protein A/G-agarose, 4°C; washes with 500 mM NaCl buffer; immunoblotting; IgG as blank control
# [2] = biological target: DNA-dependent protein kinase catalytic subunit (human (endogenous in HeLa)) (UniProt P78527); experiment: as above
Substance,binding [1],binding [2]
DNA-dependent protein kinase catalytic subunit (from UniProt P78527 1-4128),binds,–
cyclin T2 (from UniProt O60583 1-730),–,binds
